Measured data: PubChem BioAssay AID1508597 (Cure First, 2020)

- Screen: 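Knock-downs altering ovarian cancer cell survival with or without PARP inhibitor rucaparib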 (primary screen)
- Cells: human ovarian carcinoma lines grown from tumours: OCI-P5x (papillary serous) and OCI-C5x (clear cell)
- Reagent: siRNA pool against human genes, 1.25 pmol siRNA per well
- Duration: 72 h or 96 h, depending on the cell culture
- Treatment: rucaparib 20 µM (about IC30) or vehicle, present until read-out
- Rucaparib or vehicle: Rucaparib
- Cell line: OCI-C5x (clear cell)
- Measured: 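Luminescent ATP-based viability assay read 72 or 96 h after transfection, depending on culture, given as normalised percent viability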
- Scale: viability, normalised: higher = more viable cells remaining
- Call rule: 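a well counts as a hit if its normalised viability is under 80 percent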
- Meaning of the calls: active = viability under 80%; inactive = viability 80% or more
This is a random part of the about 2,100 reagents, in one setting of the screen. 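Calls flag viability under 80% in either arm, not effects specific to rucaparib; the reference for percent is not stated.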 The record does not give: the 100% reference.

gene	technical replicate	viability, normalised (%)	outcome
WWC2	1	36.7	active
WWC2	2	41.2	active
WWC2	3	37.3	active
MED31	1	54.2	active
MED31	2	45.4	active
MED31	3	70	active
CTNNB1	1	55.5	active
CTNNB1	2	59.4	active
CTNNB1	3	44.5	active
LATS2	1	54.4	active
LATS2	2	64.3	active
LATS2	3	63.6	active
SETD2	1	55.3	active
SETD2	2	40.4	active
SETD2	3	34.4	active

The list goes on; the last 2 above are carried over.
gene	technical replicate	viability, normalised (%)	outcome
SETD2	2	40.4	active
SETD2	3	34.4	active
HSPB8	1	58.5	active
HSPB8	2	70.2	active
HSPB8	3	44.8	active
MAP3K15	1	58.7	active
MAP3K15	2	44.6	active
MAP3K15	3	62.8	active
CNP	1	69.8	active
CNP	2	49.7	active
CNP	3	51.8	active
